Results reported in patent US20080248995, “Modulation of PPARgamma2 gene promoter by FOXO1” (Technion Research and Development Foundation Ltd., published 2008).
For part of these data: At least one result comes from cells or an extract, where the contact may be indirect. For part of these data: For at least one entry, the source does not settle the construct or the ends of the probe. For part of these data: No signal at the amounts used counts as a negative.

Protein sequences, listed by entry. Tags and fused reporters are not part of them.
UniProt Q12778, whole entry V343M: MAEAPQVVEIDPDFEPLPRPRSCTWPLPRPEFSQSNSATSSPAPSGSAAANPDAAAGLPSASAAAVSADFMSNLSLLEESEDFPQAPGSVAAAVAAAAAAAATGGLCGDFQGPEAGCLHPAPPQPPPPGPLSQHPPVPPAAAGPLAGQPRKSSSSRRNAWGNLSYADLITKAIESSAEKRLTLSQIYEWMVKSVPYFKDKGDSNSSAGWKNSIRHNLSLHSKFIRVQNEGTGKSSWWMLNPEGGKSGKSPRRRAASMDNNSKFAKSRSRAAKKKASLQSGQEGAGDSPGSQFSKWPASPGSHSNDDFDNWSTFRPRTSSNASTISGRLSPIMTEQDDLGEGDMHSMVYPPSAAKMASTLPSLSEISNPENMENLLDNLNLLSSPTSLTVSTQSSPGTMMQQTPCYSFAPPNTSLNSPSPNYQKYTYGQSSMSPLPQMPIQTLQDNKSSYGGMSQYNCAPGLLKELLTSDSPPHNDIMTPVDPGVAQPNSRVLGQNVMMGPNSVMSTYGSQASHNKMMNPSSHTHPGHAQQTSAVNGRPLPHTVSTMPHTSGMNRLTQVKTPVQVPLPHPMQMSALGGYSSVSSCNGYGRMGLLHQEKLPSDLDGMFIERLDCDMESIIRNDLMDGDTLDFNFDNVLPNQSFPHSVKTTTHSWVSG
UniProt Q12778, whole entry H215R/V343M: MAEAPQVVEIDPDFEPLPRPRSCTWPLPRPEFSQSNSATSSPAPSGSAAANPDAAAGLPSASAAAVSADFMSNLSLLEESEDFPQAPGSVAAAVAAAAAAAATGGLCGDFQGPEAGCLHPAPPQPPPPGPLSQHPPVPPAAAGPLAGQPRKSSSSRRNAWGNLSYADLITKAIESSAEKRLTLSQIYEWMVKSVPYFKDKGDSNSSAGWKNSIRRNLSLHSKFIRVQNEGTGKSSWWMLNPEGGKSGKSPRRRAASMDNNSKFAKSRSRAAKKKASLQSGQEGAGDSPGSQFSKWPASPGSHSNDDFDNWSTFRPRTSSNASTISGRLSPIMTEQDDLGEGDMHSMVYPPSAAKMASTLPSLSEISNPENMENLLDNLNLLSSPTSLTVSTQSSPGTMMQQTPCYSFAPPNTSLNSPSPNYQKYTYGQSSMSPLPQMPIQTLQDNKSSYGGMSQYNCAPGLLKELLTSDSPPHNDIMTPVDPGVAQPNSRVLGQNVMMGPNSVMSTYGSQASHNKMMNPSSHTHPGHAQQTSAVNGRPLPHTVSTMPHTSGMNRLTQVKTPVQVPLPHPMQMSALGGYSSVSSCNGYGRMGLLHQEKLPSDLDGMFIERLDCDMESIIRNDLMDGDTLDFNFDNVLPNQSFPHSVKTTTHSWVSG

Experiments:
[1] = target: FOXO1 (FLAG-tagged, transfected) (Homo sapiens) (UniProt Q12778); assay: binding assay; details: ChIP in HEK-293, two-step cross-linking; no signal with one-step cross-linking; protein in cells; protein details: FLAG, pcDNA3
[2] = target: FOXO1 (FLAG-tagged, transfected) (Homo sapiens) (UniProt Q12778); assay: activity in cells; details: dose-dependent repression of luciferase reporter in primary rat adipocytes; insulin partly reverses; protein in cells; protein details: FLAG, pcDNA3
[3] = target: FOXO1 H215R (Homo sapiens) (UniProt Q12778); assay: activity in cells; details: DNA binding-defective mutant completely lost repression; protein in cells; protein details: FLAG, pcDNA3

Sequence	binding result [1]	activity on this sequence (% repression below basal) [2]	activity on this sequence [3]
CAAATAATGTGATTAGAGATTCAACCAGGAATAGACACCGAAAGAAAACTTTGCCCAAATAAGCTTTCTGGTATTTCATAAGCAAGAGATTTAAGTTTTCCATTTAAGAAGCAATTGTGAATTTTACAACAATAAAAAATGCAAGTGGATATTGAACAGTCTCTGCTCTGATAATTCTAAATACAGTACAGTTCACGCCCCTCACAAGACACTGAACATGTGGGTCACCGGCGAGACAGTGTGGCAATATTTTCCCTGTAA (double strand) [hPPARγ2 promoter region 63-323]	binds	–	–
CAGTAGCATGCTGATACCAACGTTTAAACTATGGATACATATTTGAATTCCAAATTTTTCTTCAAATAATGTGATTAGAGATTCAACCAGGAATAGACACCGAAAGAAAACTTTGCCCAAATAAGCTTTCTGGTATTTCATAAGCAAGAGATTTAAGTTTTCCATTTAAGAAGCAATTGTGAATTTTACAACAATAAAAAATGCAAGTGGATATTGAACAGTCTCTGCTCTGATAATTCTAAATACAGTACAGTTCACGCCCCTCACAAGACACTGAACATGTGGGTCACCGGCGAGACAGTGTGGCAATATTTTCCCTGTAATGTACCAAGTCTTGCCAAAGCAGTGAACATTATGACACAACTTTTTGTCACAGCTGGCTCCTAATAGGACAGTGCCAGCCAATTCAAGCCCAGTCCTTTCTGTGTTTATTCCCATCTCTCCCAAATATTTGGAAACTGATGTCTTGACTCATGGGTGTATTCACAAATTCTGTTACTTCAAGTCTTTTTCTTTTAACGGATTGATCTTTTGCTAGATAGAGACAAAATATCAGTGTGAATTACAGCAAACCCCTATTCCATGCT (double strand) [hPPARγ2 promoter hG2-P587]	–	< 65	not active
